Results on 106 sequences are retold here after PubChem BioAssay AID1508600 (Functional Genomics Laboratory (NCATS/FGL), 2020).

Hit rate of the full screen: of about 53,000 sequences, about 3,700 (7%) were called active.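 The calls were made as follows: active = gene knockdowns whose robust z-score for IL-1 alpha signal is at least 2 or at most -2, so actives lie on both sides; inactive = the rest.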 The list shows a part of the results.

This assay in a line: Components of the Cytosolic LPS Sensing Pathway: Gene Identification via Genome-wide siRNA Screen.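 Also: robust z of the log signal after scaling to non-targeting control siRNA wells of the plate.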 As to conditions: RAW264.7 macrophages, IL-1a HTRF, actives lie on both sides, screened at 100 nM (by protocol), cells primed 5 h with Pam3CSK4 first. The gist of the method: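 Three distinct siRNAs per gene were tested singly at 100 nM in RAW264.7 macrophages. Following Pam3CSK4 priming and 24 hour LipidA transfection, IL-1a secretion was read by HTRF.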
For the sequence GGAACUGGACUUAUUCCACTT against Wnt5b, the z-score is inactive: 0.652.
Then GGCUGUUUUCCUGUGUAAGTT against Ppt1, with inactive: -0.826; and GGUAAAAAUGGAUUAGUCGTT against Cyp2j5, with inactive: 0.159.
On to “GCUUAAGCAGUGAUAAUAATT against B230317F23Rik”, for which the z-score was inactive: -1.65.
Take GGAAGUGGACACAGAAAAATT against Baiap2l2: the z-score is inactive: -0.0309.
For GGUGUGCAUCACCUUUGACTT against Lgals1, the z-score was inactive: -0.715.
Take GCUGAUAAAUCUGAACUACTT against Dhrs7: the z-score is inactive: 1.15.
For GCGAAUUACAUGAAAACAUTT against Rassf9, the z-score is inactive: 0.527.
With GGUAUCAAGGUGAAGUUGATT against Septin1, the z-score was inactive: 0.776.
Consider GCACAUCGGCCUUAAGUCATT against Supt4a, for which the z-score is inactive: -0.833.
As to GGUGUACAGAUCUGUCUGGTT against Dkk1, the z-score was active: 2.33.
Then CCAAGAACUACCGUGAGUATT against Uts2r, with inactive: -0.511.
Then GCCUACCCGAGGAAACUUUTT against Spatc1, with inactive: -0.302; and GGAAGUUUUGUUCCUGCAUTT against Nars2, with inactive: -0.0244; and GCCUAAGCCUACCAAACGATT against Ints3, with inactive: 0.0965.
With GGUGGACUUUAGUCCUGUGTT against Bpifb6, the z-score is inactive: -1.02.
Consider GCUUCAAAAGUCUCCAUUGTT against Slc38a8, for which the z-score was inactive: -1.86.
GGCCGUUGGAAACACGAUCTT against Exosc6: the z-score is inactive: -0.0911.
CCUUGAAAUUUGUUCAUACTT against Pgm2l1: the z-score was inactive: -0.886.
For the sequence “GGGAUUAGCACUUUUUCUUTT against 2700081O15Rik”, the z-score was inactive: -0.646.
For GGUAAACUGAGGCAACGACTT against Ddah2, the z-score is inactive: -0.234.
To GCCUGAAAGGCCUCACAAATT against Eloa belongs inactive: -0.72.
Then GCUAAAAAUGGUUGUGUGATT against Six3os1, with inactive: -1.62; and GGACUUUACUACGUAGAUGTT against Psmb8, with inactive: -1.85.
Regarding GGGCAGUCAAAACGAAGAGTT against Obi1, the z-score was inactive: -1.18.
Regarding GGCCUUAGAGAAAAUCUUUTT against Brd3, the z-score was inactive: 0.871.
To GGAAUGAGGAACCUUCUUCTT against Oprm1 belongs inactive: 0.0699; to GGAUACAGAGCAGGAGAAATT against Rhox2a, inactive: -0.822; to CCAGCAAGAGUGUGUGUAATT against Fam222a, inactive: -1.24.
Regarding GGUUGGAUCAAGUUUAAAUTT against Tmsb4x, the z-score is inactive: -0.0202.
As for GCCUUUCUCGCUACUUAGUTT against Cltc, the z-score was active: 2.83.
On to GGAGCAUUAUCAACCACUATT against Olfr908, for which the z-score is inactive: -0.0594.
As for GCGAGAAACAUCAAUGGAUTT against Psip1, the z-score is inactive: -0.145.
In the case of GGUGGACCUUUGAAAAAGCTT against Tor1aip2, the z-score is inactive: -1.54.
With “GCCCUUUCCUCAAAAAAAATT against 1700034E13Rik”, the z-score is inactive: -0.42.
Consider GGAAGAUGAACUUCGUACCTT against Slc4a2, for which the z-score is inactive: -0.438.
Then CCACGAAAGGUGGAGAGGUTT against Tmc2, with inactive: 1.17.
To GGCUAGUUUUCUCUUAAAUTT against Usp1 belongs active: -3.12; to GCCGGAAUACUGGAUACCGTT against Vasn, inactive: 0.247; to GCGUGAGAAGAGCAUUGAGTT against Rab11fip3, inactive: -0.115.
GGAAUUUUACCUUUUGGAUTT against Tm9sf3: the z-score was inactive: 0.408.
With “GGAAUAGGAGCAAGUGUACTT against 9930021J03Rik”, the z-score is inactive: 1.03.
GCGAAAAAGAUCGUCCUUGTT against Polr3a: the z-score was inactive: -0.444.
With GCGGUUGAUGCAUAUAAUUTT against Dnaaf4, the z-score is inactive: 0.504.
On to GCCACAUUUUACAAUUUAGTT against Laptm4b, for which the z-score is inactive: 0.488.
To GGAACGGAACAUAAACCAGTT against Evpl belongs inactive: 1.97; to GGCUGUGACUUUUGAUCUATT against Prelid3b, inactive: 0.46.
Then GCCUACGUUACCUUGAUCCTT against Slc16a12, with inactive: 0.0774; and CCUCUUAACAUCUCAAUACTT against Dio2, with inactive: -0.831.
To GGCCUUUUUGUUUAUGCUATT against Zan belongs inactive: -0.0784; to GGGAUGGAAACCCUGGAUCTT against Col3a1, inactive: 0.438.
For the sequence CCCAGAGGACAUUUAAGCUTT against Glb1, the z-score is inactive: -1.03.
As for GAGUUAAAGGUAAAAAUGGTT against Klra3, the z-score was inactive: -0.749.
In the case of GGAGGAGGGAAUCAGAGAATT against Zfp738, the z-score is inactive: -0.0251.
On to CCAUUGAGUCUUUCAUUACTT against Ube2g1, for which the z-score is inactive: 1.84.
To “GCAUUGUGGAGGAUGUACATT against C230029F24Rik” belongs inactive: -0.933; to CGAACCUGACUUUCACAGCTT against Il10rb, inactive: 1.02; to CCAUUGAACAGCAGAUUGGTT against Atp7a, inactive: 0.81.
For the sequence GCCUUUUUUGGAAAAUACCTT against Sulf1, the z-score is inactive: 0.3.
To GCAUGUGUUACAUAGAAAUTT against Ss18l2 belongs inactive: -0.274; to GGCAAUCUAUGAGAAAUUCTT against Rgs18, inactive: 0.463; to GCAUAUACCACCAAUGAGATT against Gid4, inactive: 0.0625.
Then GGUGGUAGCUCCAGUAUCUTT against Sdcbp2, with inactive: -1.91; and CGAGAAAAUGGAGCUCUAATT against Csf3, with inactive: 0.462; and GCUCUCACCUCCCUAUUGATT against Sult2b1, with inactive: 0.421.
GGGACUCGAGUUUCAUCUATT against Casc1: the z-score is inactive: 0.768.
With GGAAAAUGGGAAGACAGAGTT against Dus3l, the z-score is inactive: 0.686.
Then GGAUGGAAAGAAAAUCCUGTT against Pign, with inactive: -1.15; and GGGCCAAGAUUAUAAGUAATT against Pld3, with inactive: 1.39.
For GGCGGUGAUCCAGGGUUUATT against Klc2, the z-score is active: 2.62.
On to GGACAGACUGAAUGAGCAGTT against Faf2, for which the z-score is active: 2.24.
Then GGCCAUACACCUGUGACAUTT against Osr2, with inactive: 1.37; and CCUCUACAUUCCAGCCAUGTT against Yif1b, with inactive: 0.162.
As for GGUGAUCAACUUCCUGAAATT against Hdac11, the z-score is inactive: -0.713.
Take CCUUCUUGUGGGAGUGAAATT against Chodl: the z-score was inactive: -0.0597.
For the sequence GGAGAAACAAAACUUCUGGTT against Armc1, the z-score is inactive: -0.566.
Regarding CGCAUCAACAAAUUUACAATT against Kcnh7, the z-score was inactive: 0.446.
For CCUAUGUCCACCACAAAUGTT against Ifi209, the z-score was inactive: -0.14.
As to GGGAUAGCUCUUAUUAUUUTT against Man2b2, the z-score is inactive: 1.57.
As to GGGCCUGGAUUACUUACACTT against Srpk1, the z-score is active: 4.83.
As for GCUGUACUUCUAGCUCGGATT against Il17rc, the z-score was inactive: -0.0801.
Turning to GCUGUUUGCCUGGAAUUGGTT against Uqcr10, the z-score was inactive: -0.396.
For the sequence GCCCAACUACCAUAGCCUATT against Lamtor1, the z-score is inactive: 0.273.
GGACCUAAGUGUGAAAUACTT against Txndc11: the z-score was inactive: 0.542.
For the sequence GCAGCACUGGCUAUUGAGATT against Man1a2, the z-score is inactive: 0.385.
On to CCGAAUCCUAUAUUUGACATT against Ptprj, for which the z-score is inactive: -0.42.
As for GGAAAAAGCUGAGGUACCATT against Crebl2, the z-score is inactive: -1.23.
In the case of GGAGGAAAUCAGUGCAGAATT against Luc7l, the z-score was inactive: 0.843.
GGGUAAACUGUGGAGAAAUTT against Fam214b: the z-score is inactive: -0.833.
Take GGCCCUAUUUGGCUACGUUTT against Dgat2: the z-score is inactive: -0.332.
Then GGAUCUCUUCGACUAUAUCTT against Pim2, with inactive: -0.22; and CCCAGCUCACACAAACUCATT against Zfp560, with inactive: -1.24.
Regarding GGAGAUGGCUUAAAUAAAUTT against Cox6a1, the z-score was inactive: -0.278.
As for GCAUUCUCAAGUGAGGCGUTT against Atp5k, the z-score was inactive: -1.75.
Turning to GCUGUACAUUCCGAUUAUCTT against Olfr1134, the z-score is inactive: 0.631.
To GCGCGUACAUCUUGUCUCATT against Tspan11 belongs inactive: 0.279; to GGCCAUUACUCAAAUGUAUTT against Ppp2r2d, inactive: -0.415.
With GCCGCACGUUUUUGAGUUGTT against Islr2, the z-score is inactive: -0.554.
Then GGCAAAAACUAUGAACUACTT against Ctsd, with inactive: 0.714.
In the case of CCUCACAAGAGGCCUGUGUTT against Fstl1, the z-score was inactive: -1.54.
Regarding GGAGUGGUCAGCCAAACUUTT against Entpd3, the z-score was inactive: -0.466.
On to GGCUAUGCUUGAGGGAGUGTT against Oog4, for which the z-score was inactive: -0.265.
To GGCCACACAGAAUAGCUCUTT against Taf6l belongs inactive: 0.0293; to GCCAGUUUCCGCAUCUACCTT against Hoxa7, inactive: 1.37.
For the sequence GGAAAGCGGUAUGGCAUGGTT against LTO1, the z-score is inactive: -0.238.
To GCAGAUACCAUGAUACAGUTT against Med20 belongs inactive: -0.154.
